Results as given in PubChem BioAssay AID504834 (National Center for Advancing Translational Sciences (NCATS), 2011).
Among all 320,000 compounds or so, about 22,000 (6.9%) were called active. Inconclusive means that the source gave no clear call. Such entries were picked first, then a sample of the others. Calls follow the shape of the dose curve; as a rule, active = well fitted inhibition curve with a large enough effect; inconclusive = small, poorly fitted or top-dose-only effect, or another doubt; inactive = no such curve, though single readings can be large or run the other way. A potency beside an inconclusive call is a rough fit, not a confirmed value.

Assay: Primary qHTS for delayed death inhibitors of the malarial parasite plastid, 96 hour incubation
Settings: P. falciparum luciferase reporter growth; series mostly up to 28.7 µM
Summary of the method: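 Cell-based qHTS: luciferase-tagged P. falciparum in erythrocytes (2% hematocrit, 0.05% parasitemia final) incubated with compounds for 96 hours, 37 C, 5% CO2; luciferase detection reagent then added and luminescence measured.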
Potency is read from the fitted curve at half-maximal effect.

Compound	Potency
Cc1ccc(S(=O)(=O)CCC(=O)OCc2ccc(Cl)c(Cl)c2)cc1	inconclusive: 13.1 µM [inhibitor, single point]
COc1ccc(-n2c(CNC(=O)c3ccc(S(=O)(=O)N4CCCC4)cc3)n[nH]c2=S)cc1	inconclusive: 0.0415 µM [inhibitor, full curve, poor fit]
CN(/N=C/Cc1nnnn1-c1ccc(Cl)cc1)c1ccccc1	inconclusive: 1.31 µM [inhibitor, partial curve, poor fit]
CC1(C)Cc2c(cnn2-c2cccc(F)c2)C(NC(=O)CN2CCCC2=O)C1 (stereo unspecified)	inconclusive: 9.28 µM [inhibitor, single point]
Cc1oc2c(c1C(=O)c1ccccc1)C(=O)C(=O)c1ccccc1-2	active: 13.1 µM
O=C(COc1ccccc1[N+](=O)[O-])Nc1cccc(C(=O)Nc2ccccc2C(=O)O)c1	inactive
COc1cccc(OCc2cc(C(=O)N(C)CCOc3ccc(C)cc3)no2)c1	inconclusive: 18.5 µM [inhibitor, single point]
COc1[nH]c(/N=C/c2ccccc2)c(C#N)c1C#N	inactive
CCCn1nnnc1NC(=O)COc1ccc(Br)cc1	inconclusive: 4.15 µM [inhibitor, partial curve, poor fit]
CCCN(CCC)S(=O)(=O)c1cccc(C(=O)Nc2ccc3c(c2)OCO3)c1	inconclusive: 10.4 µM [inhibitor, partial curve]
Cc1ccc2cc(NC(=O)c3ccccc3)ccc2n1	inactive
CS(=O)(=O)N1CCc2cc(NC(=O)c3ccc(Cl)cc3Cl)ccc21	inactive
O=C(NNC(=O)c1ccco1)c1cccc([N+](=O)[O-])c1	inactive
COc1ccc(CCn2c(C)cc(C(=O)CCl)c2C)cc1OC	inconclusive: 11.7 µM [inhibitor, single point]
CC1CC(N(C(=O)c2ccco2)c2ccccc2)c2ccccc2N1C(=O)c1ccco1 (stereo unspecified)	inconclusive: 6.57 µM [inhibitor, single point]
CCOC(=O)N1CCC(NCCNC(=O)c2ccccc2Cl)CC1	inconclusive: 0.0037 µM [inhibitor, full curve, poor fit]
CN(CC(=O)Nc1ccccc1Cl)C(=O)COC(=O)C1=COCCO1	inactive
CCN(CC)c1ccc(C(=O)OCC(=O)NC2CCCCC2C)cc1 (stereo unspecified)	inactive
CC(C)C(=O)Nc1ccc(N2CCN(C(=O)c3cccs3)CC2)cc1	inconclusive: 13.1 µM [inhibitor, single point]
CCn1c(CC(=O)Nc2ccccc2)nnc1SCC(=O)NC1CCCC1	inconclusive: 6.57 µM [inhibitor, partial curve]
CCn1nc2cc(C(=O)NCc3cc(C(F)(F)F)cc(C(F)(F)F)c3)ccc2c1OC	inconclusive: 0.0738 µM [inhibitor, full curve, poor fit]
C/C(=N\NC(=O)c1c[nH]c2ccccc12)c1ccc2c(c1)OCO2	active: 5.86 µM
c1ccc2[nH]c(CSc3nnc(-c4ccncc4)o3)nc2c1	inconclusive: 10.4 µM [inhibitor, single point]
COc1ccc(-n2ccnc2SCC(=O)NO)cc1	inconclusive: 13.1 µM [inhibitor, single point]

Compound	Potency
Cc1c(C)n(Cc2ccc(F)cc2)c2ccc(C(=O)N3CCN(c4ccccn4)CC3)cc12	inconclusive: 18.5 µM [inhibitor, single point]
COc1ccccc1-c1n[nH]c(=S)n1Cc1ccco1	inactive
Cc1cc[n+]2cc(-c3cccc([N+](=O)[O-])c3)c(-c3cccc([N+](=O)[O-])c3)cc2c1	active: 0.147 µM
CS(=O)(=O)c1ccc(C(=O)OC2CCOC2=O)cc1[N+](=O)[O-] (stereo unspecified)	inconclusive: 3.29 µM [inhibitor, full curve]
CCC(C)NC(=O)C(NS(=O)(=O)c1ccc2c(c1)c(=O)n(C)c(=O)n2C)c1ccccc1 (stereo unspecified)	inconclusive: 9.28 µM [inhibitor, partial curve, poor fit]
Cc1nonc1CN(C)C(=O)CC1C(=O)NCCN1Cc1ccccc1C(F)(F)F (stereo unspecified)	inactive
Nc1ccc(-n2nncc2-c2ccco2)cc1	inconclusive: 5.86 µM [inhibitor, partial curve, poor fit]
Oc1ccc(C[C@H]2CNCCN2CC2(c3ccccc3)CC2)cc1	inconclusive: 11.7 µM [inhibitor, single point]
CC(=O)Nc1ccc(NC(=O)COC(=O)/C=C/c2ccc3c(c2)OCO3)cc1	inactive
Cc1cc(CNC(=O)c2cccc([N+](=O)[O-])c2)c2ccccc2n1	inconclusive: 13.1 µM [inhibitor, single point]
O=C(NCC1c2ccccc2CCN1C(=O)CN1C(=O)c2ccccc2C1=O)C1CCCCC1 (stereo unspecified)	inconclusive: 18.5 µM [inhibitor, single point]
NNc1nc(-c2ccccc2)cc(-c2ccccc2O)n1	inconclusive: 10.4 µM [inhibitor, single point]
COc1cc(/C=C(/C#N)c2nc3ccccc3[nH]2)ccc1Oc1ncccc1[N+](=O)[O-]	inconclusive: 1.31 µM [inhibitor, partial curve]
CN(C(=O)c1nn(C)c2c1CS(=O)(=O)c1ccccc1-2)c1cccc(Cl)c1	inactive
COc1ccc(C(=O)C[n+]2ccccc2C)cc1	inconclusive: 3.29 µM [inhibitor, partial curve, poor fit]
COc1cc2c(cc1OC)CN(C(C)C(=O)N1CCc3ccccc31)CC2 (stereo unspecified)	inconclusive: 11.7 µM [inhibitor, single point]
C[C@@]12CCC=C[C@H]1[C@H](c1ccc3ccccc3c1)N(Cc1ccccc1)C2=O	active: 9.28 µM
CC(=O)c1ccc(OC(=O)c2ccc(-n3nc(C)cc3C)cc2)cc1	inactive
Cc1cccc(NC(=O)c2ccc([N+](=O)[O-])s2)n1	active: 8.28 µM
CNC(=S)N(Cc1ccc2c(c1)OCO2)C1CC(=O)N(c2ccc(F)cc2)C1=O (stereo unspecified)	inconclusive: 2.08 µM [inhibitor, single point]
CC(NC(=O)C1CCN(C(=O)[C@@H]2Cc3ccccc3CN2C(=O)OC(C)(C)C)CC1)c1ccccc1 (stereo partly specified)	inconclusive: 13.1 µM [inhibitor, single point]
Oc1ccc(-c2nc(-c3ccc(O)c(O)c3)cs2)cc1	inactive
C[C@H](NC(=O)[C@@H]1CSC2c3ccccc3C(=O)N21)C(=O)NCc1c(F)cccc1Cl (stereo partly specified)	active: 11.7 µM
COc1ccc(-c2noc(C3CCCN(C(=O)c4ccc(F)cc4)C3)n2)cc1 (stereo unspecified)	inactive

Compound	Potency
COC(=O)C1=C(N)OC2=C(C(=O)CC(C)(C)C2)C1c1ccoc1 (stereo unspecified)	inactive
O=C(N/N=C/c1ccc([N+](=O)[O-])o1)c1cc(-c2ccncc2)nc2ccccc12	active: 0.928 µM
Cc1cc(C)n2nc(SCC(=O)N(CCC#N)c3ccccc3F)nc2n1	inconclusive: 13.1 µM [inhibitor, single point]
COc1ccc(NC(=O)CSc2nnc(Cc3cccn3C)n2-c2ccc(OC)cc2)cc1	inconclusive: 18.5 µM [inhibitor, partial curve, poor fit]
COc1cccc(COc2nc3c(c(=O)n(C)c(=O)n3C)n2C)c1	active: 4.15 µM
CCCC(=O)Nc1sc2c(c1C(=O)Nc1ccccn1)CCCC2	inactive
Cc1c(C(C)NC(=O)c2cc(COc3cccc4cnccc34)on2)cnn1C (stereo unspecified)	active: 8.28 µM
CCOc1ccccc1NC(=S)/C(=C(\[O-])c1ccc2c(c1)OCCO2)[n+]1ccc(CC)cc1	active: 2.33 µM
O=C(c1ccc(Cl)cc1)C(Cn1cncn1)C(Sc1ccccc1)c1ccccc1 (stereo unspecified)	inconclusive: 14.7 µM [inhibitor, single point]
CCCC(C(=O)Nc1ccc(S(=O)(=O)Nc2nccs2)cc1)c1ccccc1 (stereo unspecified)	inactive
O=C(O)c1ccc(NC(=S)NC(=O)c2cccnc2)cc1	inconclusive: 18.5 µM [inhibitor, single point]
Cc1cc(C(=O)OCC(=O)Nc2ccccc2Cl)c(C)o1	inactive
N#CNC(=Nc1ccc(Cl)cc1)Oc1ccccc1	inactive
COc1ccc(C(=O)N2CCCC2)cc1S(=O)(=O)N1CCOCC1	inactive
N#CC1=C(N)N2C(=C(C#N)C13CCCC3)Nc1ccccc12	inconclusive: 3.29 µM [inhibitor, partial curve]
O=S(=O)(N1CCOCC1)N1CCCN(S(=O)(=O)N2CCOCC2)CC1	inactive
N=C1S/C(=C\c2cn[nH]c2-c2ccc(F)cc2)C(=O)N1c1ccccc1F	inconclusive: 1.85 µM [inhibitor, full curve]
O=C(CN1CCN(c2ccc(Cl)cc2)CC1)Nc1cccc(F)c1	inconclusive: 18.5 µM [inhibitor, single point]
Cc1c(C(=O)NCc2ccccn2)sc2nc(-c3ccc(F)cc3)cn12	inconclusive: 1.17 µM [inhibitor, full curve, poor fit]
O=C(O)c1ccc(S(=O)(=O)c2ccc3c(c2)C(=O)N(NC(=O)c2ccccc2)C3=O)cc1	inactive
C=CCn1c(SCC(=O)NCCC2=CCCCC2)nc2ccc(Cl)cc2c1=O	inconclusive: 1.04 µM [inhibitor, partial curve, poor fit]
COc1cccc(NC(=O)COc2ccc(S(=O)(=O)NC(C)C)cc2)c1	inconclusive: 11.7 µM [inhibitor, partial curve, poor fit]
CCOc1ccc(-n2c(=O)c3c(C)c(C)sc3n(CC(=O)NCc3ccco3)c2=O)cc1	inconclusive: 11.7 µM [inhibitor, single point]
